Data source: PubChem BioAssay AID686937 (Drosophila RNAi Screening Center, 2013)

- Aim: 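Genes in the fly needed for secretion of protein constitutively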 (primary screen)
- System: Drosophila S2 cells expressing secreted horseradish peroxidase
- Reagent: long dsRNA against Drosophila genes
- Duration: about 5.5 days (5 days dsRNA, then 12 h reporter induction)
- Challenge: reporter expression induced after 5 days of dsRNA, read 12 h later; inducer not stated
- Read-out: 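Chemiluminescent measurement of peroxidase in the medium 12 h after reporter induction, following 5 days of dsRNA, given as a z-score per plate; higher means more secretion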
- Reading the numbers: z-score: higher = more reporter secreted into medium
The screen tested about 23,000 reagents; shown is an unselected part of those that have a named target and a result. 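Reduced-secretion tags in replicate 1 do not always agree with the z-scores; no criterion for assigning the tags was given.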 A plus sign joins genes that one reagent is predicted to hit. Not given: the amount of reagent.

target gene | amplicon | z-score, replicate 1 | z-score, replicate 2 | z-score, replicate 3 | z-score, replicate 4 | phenotype, replicate 1
CG9692 (GeneID 39865) | DRSC11091 | 0.15 | 0.02 | – | – | –
Gp210 (GeneID 35512) | DRSC04861 | 0.35 | 0.1 | – | – | –
Gp210 (GeneID 35512) | DRSC04900 | 0.19 | 0.34 | – | – | –
CG13587 (GeneID 37930) | DRSC04223 | 0.08 | 0.2 | – | – | –
Edem2 (GeneID 34714) | DRSC02877 | -0.44 | 0.41 | – | – | –
CG32052 (GeneID 326184) | DRSC10966 | 0.41 | 0.27 | – | – | –
eloF (GeneID 41211) | DRSC15162 | 0.16 | 0.62 | – | – | –
Camp (GeneID 36948) | DRSC07004 | 0.44 | 0.2 | – | – | –
CG5742 (GeneID 37072) | DRSC06949 | 0.17 | 0.19 | – | – | –
Sod2 (GeneID 36878) | DRSC07554 | -0.07 | 0.25 | – | – | –
CG10553 (GeneID 43064) | DRSC14254 | 0.06 | 0.02 | – | – | –
CG11590 (GeneID 32368) | DRSC19411 | 0.39 | 0.28 | – | – | –
snRNA:U4atac (GeneID 12798231) | DRSC12055 | 0.61 | 0.45 | – | – | –
CG13722 (GeneID 38555) | DRSC08331 | 0.45 | 0.59 | – | – | –
CG13722 (GeneID 38555) | DRSC21616 | -0.43 | -0.02 | – | – | –
RhoGEF3 (GeneID 38050) | DRSC08266 | 0.6 | -0.01 | 0.03 | 0.41 | –
RhoGEF3 (GeneID 38050) | DRSC08351 | 0.31 | 0.29 | – | – | –
RhoGEF3 (GeneID 38050) | DRSC08352 | 0.28 | 0.24 | – | – | –
RhoGEF3 (GeneID 38050) | DRSC08353 | -0.02 | 0.26 | – | – | –
Hacd2 (GeneID 34762) | DRSC03181 | 0.8 | 0.39 | – | – | –
CG13527 (GeneID 37615) | DRSC04169 | 0.4 | 0.32 | – | – | –
CG5478 (GeneID 41936) | DRSC15814 | 0.45 | 0.28 | – | – | –
Eps-15 (GeneID 37961) | DRSC04288 | 0.28 | 0.12 | – | – | –
en (GeneID 36240) | DRSC07609 | 0.4 | 0.42 | – | – | –
CG11327 (GeneID 33940) | DRSC02146 | 0.16 | 0.09 | – | – | –
gkt (GeneID 33530) | DRSC00821 | 0.27 | 0.23 | – | – | –
Dhdds (GeneID 31708) | DRSC17756 | -1.17 | -2.08 | – | – | –
CG32278 + CG14963 | DRSC22203 | -0.18 | 0.21 | – | – | –
REPTOR (GeneID 42930) | DRSC14626 | 0.43 | 0.4 | – | – | –
CG5731 (GeneID 34355) | DRSC02883 | -2.71 | -0.12 | – | – | reduced secretion
ND-15 (GeneID 33179) | DRSC00311 | 0.1 | 0.13 | – | – | –
Pex11c (GeneID 42751) | DRSC14677 | 0.16 | 0.29 | – | – | –
CG4935 (GeneID 34955) | DRSC01924 | -0.05 | 0.13 | – | – | –
